Binding data for 1 substance are collected here from doi:10.1101/2025.05.21.655143.

Amino acid sequences for entries named in this document (tags omitted). A change or cut given only in a name is not applied to a line headed by its entry. Chains listed by the source or under a name are the forms on record and can include a tag or linker.
Halo-SPEN-V5 (Q62504, form named): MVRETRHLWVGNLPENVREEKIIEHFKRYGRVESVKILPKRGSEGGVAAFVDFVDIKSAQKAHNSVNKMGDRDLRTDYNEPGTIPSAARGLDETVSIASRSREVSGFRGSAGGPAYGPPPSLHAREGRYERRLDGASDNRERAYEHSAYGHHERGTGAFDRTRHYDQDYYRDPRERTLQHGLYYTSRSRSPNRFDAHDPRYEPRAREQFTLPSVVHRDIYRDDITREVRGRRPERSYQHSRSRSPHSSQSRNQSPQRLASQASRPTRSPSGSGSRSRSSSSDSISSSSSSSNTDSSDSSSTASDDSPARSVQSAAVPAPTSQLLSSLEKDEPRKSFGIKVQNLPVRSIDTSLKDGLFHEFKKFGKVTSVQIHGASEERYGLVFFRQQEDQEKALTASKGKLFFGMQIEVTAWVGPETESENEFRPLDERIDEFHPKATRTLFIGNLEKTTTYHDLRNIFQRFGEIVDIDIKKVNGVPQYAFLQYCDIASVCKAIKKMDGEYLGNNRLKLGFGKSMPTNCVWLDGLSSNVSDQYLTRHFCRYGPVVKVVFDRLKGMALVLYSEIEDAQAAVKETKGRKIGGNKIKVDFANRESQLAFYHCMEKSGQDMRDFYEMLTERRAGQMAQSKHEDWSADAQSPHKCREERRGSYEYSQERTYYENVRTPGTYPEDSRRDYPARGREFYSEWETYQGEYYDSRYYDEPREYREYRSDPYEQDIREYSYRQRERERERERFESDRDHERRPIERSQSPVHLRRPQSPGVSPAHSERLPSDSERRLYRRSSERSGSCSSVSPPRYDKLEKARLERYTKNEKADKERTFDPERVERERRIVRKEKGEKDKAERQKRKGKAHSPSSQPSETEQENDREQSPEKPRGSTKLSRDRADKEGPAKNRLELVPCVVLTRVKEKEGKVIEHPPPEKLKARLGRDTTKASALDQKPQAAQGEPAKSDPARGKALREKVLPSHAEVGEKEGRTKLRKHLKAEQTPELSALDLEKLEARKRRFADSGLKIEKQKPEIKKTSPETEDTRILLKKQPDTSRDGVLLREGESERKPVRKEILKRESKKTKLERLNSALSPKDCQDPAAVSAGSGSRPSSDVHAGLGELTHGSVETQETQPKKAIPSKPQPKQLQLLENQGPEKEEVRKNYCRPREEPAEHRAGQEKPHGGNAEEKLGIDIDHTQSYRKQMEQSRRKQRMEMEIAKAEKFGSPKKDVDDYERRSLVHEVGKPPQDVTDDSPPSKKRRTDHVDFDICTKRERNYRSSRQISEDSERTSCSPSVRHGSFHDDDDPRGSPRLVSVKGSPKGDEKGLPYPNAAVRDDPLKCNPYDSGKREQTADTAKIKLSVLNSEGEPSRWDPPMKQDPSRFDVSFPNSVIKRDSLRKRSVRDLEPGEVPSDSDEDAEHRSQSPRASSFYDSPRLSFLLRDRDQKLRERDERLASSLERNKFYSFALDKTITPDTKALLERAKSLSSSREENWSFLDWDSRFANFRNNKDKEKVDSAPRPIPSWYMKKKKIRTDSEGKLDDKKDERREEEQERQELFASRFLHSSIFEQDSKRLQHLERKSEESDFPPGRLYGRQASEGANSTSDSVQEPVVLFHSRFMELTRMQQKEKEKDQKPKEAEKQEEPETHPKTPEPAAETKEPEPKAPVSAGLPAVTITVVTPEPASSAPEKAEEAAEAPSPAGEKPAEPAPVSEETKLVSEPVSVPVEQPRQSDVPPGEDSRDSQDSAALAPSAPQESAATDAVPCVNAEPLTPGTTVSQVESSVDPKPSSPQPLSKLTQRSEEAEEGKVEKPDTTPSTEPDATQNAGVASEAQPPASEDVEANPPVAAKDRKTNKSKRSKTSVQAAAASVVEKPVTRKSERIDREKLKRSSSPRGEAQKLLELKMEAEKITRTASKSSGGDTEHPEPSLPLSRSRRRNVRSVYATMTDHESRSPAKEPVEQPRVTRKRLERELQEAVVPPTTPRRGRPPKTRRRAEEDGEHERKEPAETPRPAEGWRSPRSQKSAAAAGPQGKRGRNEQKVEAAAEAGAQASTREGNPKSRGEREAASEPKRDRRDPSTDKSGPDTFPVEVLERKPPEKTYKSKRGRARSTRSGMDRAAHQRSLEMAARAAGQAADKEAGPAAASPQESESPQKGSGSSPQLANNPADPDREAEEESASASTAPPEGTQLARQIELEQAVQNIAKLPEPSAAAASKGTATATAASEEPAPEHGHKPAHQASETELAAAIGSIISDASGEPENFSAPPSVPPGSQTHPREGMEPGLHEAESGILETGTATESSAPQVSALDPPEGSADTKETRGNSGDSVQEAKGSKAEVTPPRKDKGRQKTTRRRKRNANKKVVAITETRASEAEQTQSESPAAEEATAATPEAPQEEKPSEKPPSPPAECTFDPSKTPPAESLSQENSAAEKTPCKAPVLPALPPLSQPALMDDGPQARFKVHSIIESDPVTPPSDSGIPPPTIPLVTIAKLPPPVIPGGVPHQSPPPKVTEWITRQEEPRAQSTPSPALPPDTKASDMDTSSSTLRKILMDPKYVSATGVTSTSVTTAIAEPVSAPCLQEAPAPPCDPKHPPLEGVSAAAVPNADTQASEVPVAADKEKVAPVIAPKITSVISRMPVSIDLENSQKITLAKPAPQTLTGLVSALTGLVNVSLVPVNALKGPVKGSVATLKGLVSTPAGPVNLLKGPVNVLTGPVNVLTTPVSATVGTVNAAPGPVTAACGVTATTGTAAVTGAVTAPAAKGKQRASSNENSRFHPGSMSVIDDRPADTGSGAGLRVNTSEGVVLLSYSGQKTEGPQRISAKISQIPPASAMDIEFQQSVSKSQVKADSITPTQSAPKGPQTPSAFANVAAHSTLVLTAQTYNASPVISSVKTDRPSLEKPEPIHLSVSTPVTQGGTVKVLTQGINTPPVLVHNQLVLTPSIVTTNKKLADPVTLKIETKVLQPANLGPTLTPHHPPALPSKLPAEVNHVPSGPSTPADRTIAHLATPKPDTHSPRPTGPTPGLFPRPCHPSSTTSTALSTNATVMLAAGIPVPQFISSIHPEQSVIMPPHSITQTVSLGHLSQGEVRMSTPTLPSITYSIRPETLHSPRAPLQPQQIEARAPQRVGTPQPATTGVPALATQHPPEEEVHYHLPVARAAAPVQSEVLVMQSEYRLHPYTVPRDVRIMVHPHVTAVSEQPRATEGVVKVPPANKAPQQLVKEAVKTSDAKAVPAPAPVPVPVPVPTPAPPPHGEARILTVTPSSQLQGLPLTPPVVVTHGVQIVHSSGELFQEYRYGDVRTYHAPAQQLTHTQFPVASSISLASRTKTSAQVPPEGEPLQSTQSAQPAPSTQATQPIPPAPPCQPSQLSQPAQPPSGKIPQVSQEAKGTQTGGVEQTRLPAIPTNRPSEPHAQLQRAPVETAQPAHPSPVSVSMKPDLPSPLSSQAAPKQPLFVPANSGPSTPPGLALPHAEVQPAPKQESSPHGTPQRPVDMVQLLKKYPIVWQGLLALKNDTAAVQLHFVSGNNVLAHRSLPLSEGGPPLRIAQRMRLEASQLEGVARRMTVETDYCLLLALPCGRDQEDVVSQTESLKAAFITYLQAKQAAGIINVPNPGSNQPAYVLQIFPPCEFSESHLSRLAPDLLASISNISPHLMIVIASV
UniProt Q6PDM2: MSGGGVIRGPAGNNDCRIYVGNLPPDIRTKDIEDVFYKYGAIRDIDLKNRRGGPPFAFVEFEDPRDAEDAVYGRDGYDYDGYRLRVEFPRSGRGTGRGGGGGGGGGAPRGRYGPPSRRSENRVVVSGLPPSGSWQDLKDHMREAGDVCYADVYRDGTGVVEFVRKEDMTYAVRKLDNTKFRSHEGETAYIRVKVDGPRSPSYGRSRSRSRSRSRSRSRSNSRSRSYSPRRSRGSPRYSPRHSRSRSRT

Results are given in words; binding and its absence hold for the method and conditions named. Binding seen in cells or lysates may run through a third protein. Some binding calls cover weakened binding; strength is not graded here.

This assay deals with Halo-SPEN-V5 (mouse) (UniProt Q62504). Description: co-IP.

With SRSF1 (from UniProt Q6PDM2 1-248), the binding entry is “binds”.
